Reference: patent publication US8697703B2, “Piperazine derivatives for blocking Cav2.2 calcium channels” (Convergence Pharmaceuticals Limited, priority 2010, dated 2014)
Some entries share one result that the patent states for a list of compounds.

Amino acid sequences for entries named in this document (tags omitted). A change or cut given only in a name is not applied to a line headed by its entry.
UniProt O95180, whole entry V664A: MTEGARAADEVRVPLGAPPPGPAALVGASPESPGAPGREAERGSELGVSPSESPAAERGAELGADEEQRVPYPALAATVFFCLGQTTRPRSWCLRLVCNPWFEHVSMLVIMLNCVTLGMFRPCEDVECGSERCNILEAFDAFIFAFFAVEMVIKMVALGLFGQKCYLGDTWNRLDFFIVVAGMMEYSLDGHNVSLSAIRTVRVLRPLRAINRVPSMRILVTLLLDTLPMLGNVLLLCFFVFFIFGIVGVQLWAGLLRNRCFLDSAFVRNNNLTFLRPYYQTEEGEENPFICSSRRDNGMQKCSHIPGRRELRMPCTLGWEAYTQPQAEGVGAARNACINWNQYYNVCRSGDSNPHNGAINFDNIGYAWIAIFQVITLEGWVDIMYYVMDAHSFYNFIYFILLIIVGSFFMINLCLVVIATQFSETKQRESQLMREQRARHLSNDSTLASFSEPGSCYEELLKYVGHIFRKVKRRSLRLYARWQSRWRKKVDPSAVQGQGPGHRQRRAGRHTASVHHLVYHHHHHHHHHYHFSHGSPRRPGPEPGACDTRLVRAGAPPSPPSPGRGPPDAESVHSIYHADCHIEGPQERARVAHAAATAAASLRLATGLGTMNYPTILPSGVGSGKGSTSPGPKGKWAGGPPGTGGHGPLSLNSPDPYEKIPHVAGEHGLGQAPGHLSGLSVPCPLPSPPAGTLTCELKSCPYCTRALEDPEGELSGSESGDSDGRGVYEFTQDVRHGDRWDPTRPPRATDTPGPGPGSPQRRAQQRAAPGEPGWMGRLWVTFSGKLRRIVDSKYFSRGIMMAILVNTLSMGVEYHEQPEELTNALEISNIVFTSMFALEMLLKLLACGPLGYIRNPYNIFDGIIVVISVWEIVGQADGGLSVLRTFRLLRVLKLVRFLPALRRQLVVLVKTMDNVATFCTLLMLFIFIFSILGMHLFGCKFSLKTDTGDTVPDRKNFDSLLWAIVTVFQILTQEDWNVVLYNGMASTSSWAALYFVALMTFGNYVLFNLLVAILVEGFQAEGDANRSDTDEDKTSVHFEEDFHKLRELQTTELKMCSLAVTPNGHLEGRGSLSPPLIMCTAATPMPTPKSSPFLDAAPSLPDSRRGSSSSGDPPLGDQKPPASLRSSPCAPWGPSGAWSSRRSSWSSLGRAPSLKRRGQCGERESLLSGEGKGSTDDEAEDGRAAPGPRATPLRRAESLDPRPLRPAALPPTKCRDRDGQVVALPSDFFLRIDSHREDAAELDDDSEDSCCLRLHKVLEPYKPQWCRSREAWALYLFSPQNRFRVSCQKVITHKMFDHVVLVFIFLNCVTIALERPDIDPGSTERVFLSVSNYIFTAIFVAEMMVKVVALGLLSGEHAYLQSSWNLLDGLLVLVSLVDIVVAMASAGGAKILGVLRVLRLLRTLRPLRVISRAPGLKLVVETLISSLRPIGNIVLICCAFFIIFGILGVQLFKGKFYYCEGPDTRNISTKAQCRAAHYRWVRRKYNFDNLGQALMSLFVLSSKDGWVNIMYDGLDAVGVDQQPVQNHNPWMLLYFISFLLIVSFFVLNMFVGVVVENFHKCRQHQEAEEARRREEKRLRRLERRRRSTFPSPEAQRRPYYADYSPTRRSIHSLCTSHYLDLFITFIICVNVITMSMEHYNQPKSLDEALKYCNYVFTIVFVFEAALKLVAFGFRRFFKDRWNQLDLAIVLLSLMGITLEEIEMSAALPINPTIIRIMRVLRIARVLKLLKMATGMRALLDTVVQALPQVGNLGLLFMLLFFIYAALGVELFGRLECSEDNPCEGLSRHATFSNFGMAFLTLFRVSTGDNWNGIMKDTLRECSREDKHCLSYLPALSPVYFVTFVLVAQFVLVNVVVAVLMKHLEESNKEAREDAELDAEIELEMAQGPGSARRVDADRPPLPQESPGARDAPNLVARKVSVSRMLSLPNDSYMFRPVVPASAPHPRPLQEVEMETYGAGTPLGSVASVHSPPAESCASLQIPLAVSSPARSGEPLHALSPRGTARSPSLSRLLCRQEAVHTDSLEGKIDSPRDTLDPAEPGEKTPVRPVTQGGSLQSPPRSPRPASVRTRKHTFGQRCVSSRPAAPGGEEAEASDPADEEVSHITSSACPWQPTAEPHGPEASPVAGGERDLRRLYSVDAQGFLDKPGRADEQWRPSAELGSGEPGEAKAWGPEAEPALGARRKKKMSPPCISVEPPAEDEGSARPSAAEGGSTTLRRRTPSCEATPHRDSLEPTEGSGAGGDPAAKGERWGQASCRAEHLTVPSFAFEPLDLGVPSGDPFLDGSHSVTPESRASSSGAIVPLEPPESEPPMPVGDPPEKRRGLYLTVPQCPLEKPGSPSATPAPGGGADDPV
UniProt Q00975, whole entry: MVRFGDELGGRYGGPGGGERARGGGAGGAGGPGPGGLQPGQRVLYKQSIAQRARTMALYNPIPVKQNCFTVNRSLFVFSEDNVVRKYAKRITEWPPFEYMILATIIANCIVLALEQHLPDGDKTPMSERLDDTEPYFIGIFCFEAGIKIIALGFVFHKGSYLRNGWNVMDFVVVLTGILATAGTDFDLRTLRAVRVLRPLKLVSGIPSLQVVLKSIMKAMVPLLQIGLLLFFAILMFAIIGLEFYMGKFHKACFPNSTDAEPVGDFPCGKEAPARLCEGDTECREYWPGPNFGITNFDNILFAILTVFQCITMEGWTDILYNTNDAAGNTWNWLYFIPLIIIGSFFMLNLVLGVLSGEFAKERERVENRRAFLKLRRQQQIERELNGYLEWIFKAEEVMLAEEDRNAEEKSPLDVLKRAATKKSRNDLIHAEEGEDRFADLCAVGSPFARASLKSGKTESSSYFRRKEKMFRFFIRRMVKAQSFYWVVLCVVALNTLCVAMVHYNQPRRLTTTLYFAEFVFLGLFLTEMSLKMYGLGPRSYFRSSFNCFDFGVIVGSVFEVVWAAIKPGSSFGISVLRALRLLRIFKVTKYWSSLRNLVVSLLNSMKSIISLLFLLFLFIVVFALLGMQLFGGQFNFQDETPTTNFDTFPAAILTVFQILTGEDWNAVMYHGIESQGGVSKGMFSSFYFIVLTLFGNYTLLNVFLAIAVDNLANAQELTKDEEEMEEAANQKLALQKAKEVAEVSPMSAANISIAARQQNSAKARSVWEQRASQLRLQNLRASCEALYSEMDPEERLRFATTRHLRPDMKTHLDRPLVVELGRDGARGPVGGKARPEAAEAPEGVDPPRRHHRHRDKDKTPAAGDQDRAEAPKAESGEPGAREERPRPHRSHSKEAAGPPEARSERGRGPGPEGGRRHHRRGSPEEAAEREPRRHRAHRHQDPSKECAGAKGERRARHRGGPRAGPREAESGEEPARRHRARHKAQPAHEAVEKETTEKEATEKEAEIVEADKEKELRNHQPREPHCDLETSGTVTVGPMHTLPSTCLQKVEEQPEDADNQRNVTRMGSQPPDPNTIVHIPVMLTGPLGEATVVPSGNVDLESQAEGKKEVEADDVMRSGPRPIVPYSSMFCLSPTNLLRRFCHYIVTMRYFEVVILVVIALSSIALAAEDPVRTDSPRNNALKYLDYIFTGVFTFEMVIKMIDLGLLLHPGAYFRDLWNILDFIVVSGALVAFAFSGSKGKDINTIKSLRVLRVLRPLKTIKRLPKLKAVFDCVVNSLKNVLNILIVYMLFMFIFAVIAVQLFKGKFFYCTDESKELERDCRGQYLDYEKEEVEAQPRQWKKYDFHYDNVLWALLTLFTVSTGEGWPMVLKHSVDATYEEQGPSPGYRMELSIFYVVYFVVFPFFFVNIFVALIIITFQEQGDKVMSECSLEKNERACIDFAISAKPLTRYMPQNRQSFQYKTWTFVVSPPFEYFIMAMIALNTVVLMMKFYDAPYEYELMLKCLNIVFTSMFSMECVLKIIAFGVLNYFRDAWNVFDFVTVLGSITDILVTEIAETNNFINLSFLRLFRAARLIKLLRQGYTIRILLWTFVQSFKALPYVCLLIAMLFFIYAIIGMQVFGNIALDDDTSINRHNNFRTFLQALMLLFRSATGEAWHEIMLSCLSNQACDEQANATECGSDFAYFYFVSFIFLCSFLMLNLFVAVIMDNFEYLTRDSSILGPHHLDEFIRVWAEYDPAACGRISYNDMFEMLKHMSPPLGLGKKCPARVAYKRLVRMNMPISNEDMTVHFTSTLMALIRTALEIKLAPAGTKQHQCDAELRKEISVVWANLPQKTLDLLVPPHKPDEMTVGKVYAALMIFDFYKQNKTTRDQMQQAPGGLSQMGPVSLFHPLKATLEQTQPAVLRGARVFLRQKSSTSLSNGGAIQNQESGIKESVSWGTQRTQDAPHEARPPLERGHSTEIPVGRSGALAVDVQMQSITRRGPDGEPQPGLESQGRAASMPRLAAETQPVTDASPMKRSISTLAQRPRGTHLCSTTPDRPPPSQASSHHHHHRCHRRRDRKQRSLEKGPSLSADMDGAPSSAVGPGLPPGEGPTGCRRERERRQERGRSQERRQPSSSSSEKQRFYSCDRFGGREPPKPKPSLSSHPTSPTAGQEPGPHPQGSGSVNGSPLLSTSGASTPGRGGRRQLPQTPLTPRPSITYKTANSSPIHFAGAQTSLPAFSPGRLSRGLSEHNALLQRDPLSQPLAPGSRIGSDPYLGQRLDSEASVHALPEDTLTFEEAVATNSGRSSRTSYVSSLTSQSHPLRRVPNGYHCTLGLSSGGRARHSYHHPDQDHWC

Columns and labels:
[1] = molecular target: T1, hCav3.2 channels (T-type; CACNA1H) (Homo sapiens, UniProt O95180, V664A); assay: Cav3.2 assay (T-type), IonWorks Quattro planar array electrophysiology in stable HEK293 cells; type: cell-based; conditions: concentration producing 30% use-dependent inhibition, 10th versus 1st depolarising pulse, 3 Hz, -120 mV to -40 mV
T1 construct: predicted protein is equivalent to the full-length human variant NP_066921; expressed in transfected cells; plasmid pCIN5-human-alpha1H
From the text: The ability of the compounds of the invention to modulate the voltage-gated calcium channel subtype Cav3.2 (T-Type) may be determined by the following assay.
Stable cell lines expressing hCav3.2 channels were created by transfecting HEK293 cells with the plasmid pCIN5-human-alpha1H. pCIN5-human-alpha1H predicted protein is equivalent to the full-length human variant NP_066921 for the human ion channel CACNA1H (voltage dependent calcium channel T type alpha 1H subunit), the longer variant form. It contains minor alleles for two SNPs (Ala 664 and Arg 2077). However, in the absence of any knowledge about compound binding at this ion channel, these rare variants are not seen as issues. Stable cell line was selected by 500 ug/ml G418 (geneticin). The best cell line clone was selected by IonWorks. Cells were cultured in DMEM/F12 medium supplemented by 10% Foetal Bovine Serum (Gibco/Invitrogen #041-95750), 1% non-essential amino acids (PAA, M11-003) and 1% Penicillin-Streptomycin (Invitrogen, 15140-122). 500 ug/ml of G418 (PAA, P11-012) was added to maintain channel expression. Cells were grown and maintained at 37° C. in a humidified environment containing 5% CO2 in air. Cells were detached from the T175 culture flask for passage and harvesting using TrypLE (Gibco/Invitrogen cat #12604). For the experiment, cells were plated in a T175 culture flask 48 hours before running the assay to reach a 50-80% confluence the day of the experiment.
Cells were grown to 50-80% confluence in a T175 flask. Cells were removed from the incubator and the media was aspirated. […]
Currents were recorded at room temperature using the IonWorks Quattro™ planar array electrophysiology technology (Molecular Devices Corp.) with PatchPlate™ PPC for Ionworks Quattro (Molecular Devices, 9000-0902). […] In all experiments, the test pulse protocol was performed in the absence (pre-read) and presence (post-read) of a compound. Pre- and post-reads were separated by a compound addition followed by a 10 minute incubation. […]

[2] = molecular target: T2, hCav2.2 (N-type) calcium channel: human Cav2.2α (α1B) subunit with human β3 and α2δ1 auxiliary subunits (Homo sapiens, UniProt Q00975); assay: hCav2.2 assay (N-type), IonWorks planar array electrophysiology in stable HEK293 cells; type: cell-based; conditions: current elicited by the 1st depolarising pulse inhibited by 50%
T2 construct: expressed in transfected cells; plasmids pCIN5-hCav2.2, pCIH-hCav β3, pCIP-α2δ1
Method: Compounds as defined in the first or second aspect may be tested for in vitro biological activity in the hCav2.2 assay (N-type) in accordance with the following studies:
Stable cell lines expressing the human Cav2.2α (α1B) subunit, along with the human β3 and α2δ1 auxiliary subunits were created following sequential transfection and selection of human embryonic kidney (HEK293) cells. HEK293 cells were cultured in Dulbecco's modified Eagles media/F12 media (Invitrogen, Cat #041-95750V) containing 10% fetal bovine serum, with added L-glutamine (2 mM; Invitrogen, Cat #25030-024) and non-essential amino acids (5%; Invitrogen, Cat #11140-035). Initially HEK293 cells were transfected with two plasmid vectors for expression of the hCav2.2 α subunit (pCIN5-hCav2.2 which carries a neomycin resistance marker) and the hCav β3 subunit (pCIH-hCav β3 which carries a hygromycin resistance marker). Clonal cell lines were isolated following selection in media supplemented with 0.4 mg ml^−1 Geneticin G418 (Invitrogen, Cat #10131-027) and 0.1 mg ml^−1 hygromycin (Invitrogen, Cat #10687-010). These clonal cell lines were assessed for Cav2.2 α/β3-mediated current expression using the IonWorks planar array electrophysiology technology (described below). A clonal line was identified that gave a reasonable level of functional Cav2.2 α/β3 current expression. This cell line was transfected with a plasmid vector for expression of the human α2δ1 subunit (pCIP-α2δ1 which carries a puromycin resistance marker) and clonal cell lines isolated following selection in media containing 0.62 μg ml^−1 puromycin (Sigma, Cat # P-7255), in addition to 0.4 mg ml^−1 Geneticin G418 and 0.1 mg ml^−1 hygromycin. Several cell lines were identified that gave robust levels of Cav2.2 α/β3/α2δ1-mediated current expression and one of these was selected for compound profiling. Expression of all three subunits within this cell line was continuously maintained by the inclusion of G418 (0.4 mg ml^−1), hygromycin (0.1 mg ml^−1) and puromycin (0.62 μg ml^−1). Cells were maintained at 37° C. in a humidified environment containing 5% CO2 in air. Cells were liberated from the T175 culture flasks for passage and harvesting using TrpLE (Invitrogen, Cat #12604-013).
Cells were grown to 30-60% confluence in T175 flasks and maintained at 30° C. for 24 hrs prior to recording. Cells were lifted by removing the growth media, washing with Ca^2+free PBS (Invitrogen, Cat #14190-094) and incubating with 3 ml of warmed (37° C.) TrpLE (Invitrogen, Cat #12604-013) for 6 minutes. Lifted cells were suspended in 10 ml of extracellular buffer. Cell suspension was then placed into a 15 ml tube and centrifuged for 2 minutes at 700 rpm. After centrifugation, the supernatant was removed and the cell pellet was resuspended in 4.5 ml of extracellular solution.
Currents were recorded at room temperature (21-23° C.) using the IonWorks planar array electrophysiology technology (Molecular Devices Corp.). Stimulation protocols and data acquisition were carried out using a microcomputer (Dell Pentium 4). In order to determine planar electrode hole resistances (Rp), a 10 mV, 160 ms potential difference was applied across each hole. These measurements were performed before cell addition. After cell addition a seal test was performed prior to antibiotic (amphotericin) circulation to achieve intracellular access. Leak subtraction was conducted in all experiments by applying a 160 ms hyperpolarizing (10 mV) prepulse 200 ms before the test pulses to measure leak conductance. Test pulses stepping from the holding potential (VH) of −90 mV to +10 mV were applied for 20 ms and repeated 10 times at a frequency of 10 Hz. In all experiments, the test pulse protocol was performed in the absence (pre-read) and presence (post-read) of a compound. Pre- and post-reads were separated by a compound addition followed by a 3-3.5 min incubation. […]

## Cl.O=C(c1ccc2cccnc2c1)N1CCN(S(=O)(=O)c2ccc(C(F)(F)F)cc2)CC1 [Compound 4, 7-[(4-{[4-(Trifluoromethyl)phenyl]sulfonyl}-1-piperazinyl)carbonyl]quinoline hydrochloride]
[1]; hydrochloride
  pUD30 (use-dependent): ≥ 5.5

## Cc1cc(C#N)ccc1S(=O)(=O)N1CCN(C(=O)c2ccc3cccnc3c2)CC1.Cl [Compound 7, 3-Methyl-4-{[4-(7-quinolinylcarbonyl)-1-piperazinyl]sulfonyl}benzonitrile hydrochloride]
[1]; hydrochloride
  pUD30 (use-dependent): ≥ 5.5

## Cc1cc(C#N)ccc1S(=O)(=O)N1CCN(C(=O)c2ccc3cccnc3c2)[C@@H](C)C1.Cl [Compound 8, 3-Methyl-4-{[(3S)-3-methyl-4-(7-quinolinylcarbonyl)-1-piperazinyl]sulfonyl}benzonitrile hydrochloride]
[1]
  pUD30 (use-dependent): ≥ 5.5
[2]
  pIC50 (tonic): ≥ 4.5
